The values below come from article PMC5042466.

These are yes or no findings as the source states them, for the method shown. Some entries that bind do so weakly or less than the wild type. Where a sequence is shown, tags or fusion partners need not be part of it.

This assay concerns the target human pi class glutathione S-transferase of subunit type 1 (hGSTP1), with GS-PEITC bound (human), P09211. The assay is described as follows: crystal structure; hGSTP1 (21.1 mg/ml) mixed with GSH and PEITC, 6 h at 4°C; hanging drop, 20% PEG-8000, 0.2 M Ca(OAc)2, 0.1 M MES pH 6.0; 1.95 Å, space group C2; both purified. As to conditions: remark: other sources report otherwise.

B1: human pi class glutathione S-transferase of subunit type 1 (hGSTP1), with GS-PEITC bound, P09211 1-210 (enzyme)
chain: MPPYTVVYFPVRGRCAALRMLLADQGQSWKEEVVTVETWQEGSLKASCLYGQLPKFQDGDLTLYQSNTILRHLGRTLGLYGKDQQEAALVDMVNDGVEDLRCKYISLIYTNYEAGKDDYVKALPGQLKPFETLLSQNQGGKTFIVGDQISFADYNLLDLLLIHEVLAPGCLDAFPLLSAYVGRLSARPKLKAFLASPEYVNLPINGNGKQ
Take B1: the binding entry is reported as “binds”.
